From patent US20250092437A1, “DISEASE DETECTION WITH COMBINATORIAL BIOMARKERS” (priority 2021, published 2025)
Some of these results come from one statement about several compounds together. At least one compound was matched to its structure with a doubt left.

Tested on: proteolytic cleavage of Probe #102 (cathepsin L, CTSL)
Assay: protease inhibitor profiling of Probe #102 cleavage in NASH and healthy plasma
Type: biochemical, mice
Conditions: Probe #102, 6 uM substrate, plasma diluted in PBS
Description: For this experiment, all plasma samples were prepared individually and diluted 1/10e in PBS with inhibitor added directly to the samples. Inhibitor was prepared at 15× concentration to final. Substrates were diluted in DI water at 18 uM, such that the final concentration on the plate would be 6 uM. All samples were prepared such that their last dilution on the plate would not affect the desired final concentration. 10 ul of each individual sample was pipetted into their corresponding wells, and the plate was then spun down in the centrifuge at 1500 RPM for 30 seconds to coat the bottom of each well with the sample. 5 ul of the 18 uM substrate solution was pipetted into each well being used on a 384 well plate, and then the plate was spun down in the centrifuge at 1500 rpm for 30 seconds. The plate was placed immediately in the plate reader at 37° C. for a 30-minute-long fluorescence kinetic read at 485/535 extended gain.
To assess the proteolytic cleavage pattern of Probe #102, samples were tested using a pool of broad inhibitors for serine, cysteine, threonine, MMP and aspartic protease family members (broad inhibitor) to assess general protease activity, AEBSF for serine proteases, E64 for cysteine proteases, CTSi for broad cathepsin inhibition of cathepsins L, S, K and B, or specific inhibitors for cathepsin K (L00625), for cathepsin L (SID) or cathepsin B (CA074).

CC(C)C[C@H](NC(=O)[C@H]1O[C@@H]1C(=O)O)C(=O)NCCCCN=C(N)N [Probe E64, E64]
decrease in the RFU signal contrast between NASH and healthy samples: greater than 6 fold
